The whole screen tested about 300,000 compounds, of which about 3,700 (1.2%) were called active. Inconclusive means that the source gave no clear call. Such entries were picked first, then a sample of the others. Calls follow the shape of the full dose curve; tested in HEK293 cells. Potencies beside an inconclusive call are fits to weak or partial responses and may not hold up.
Assay: qHTS for Inhibitors of binding or entry into cells for Lassa Virus; also: nearly all actives have a fitted effect of over 50% in size
Details: Lassa virus pseudotype entry inhibition, cell reporter; activity change, negative = inhibition: at 37.9 µM (top of the series) unless noted
% is scaled to controls: 0 for no effect and ±100 for the full control effect; potency is read from the fitted curve at half-maximal effect.

SMILES | Potency | activity change, negative = inhibition
Cn1c(=O)n(CCc2ccccc2)c(=O)c2c1nc1n2CCCN1CCc1ccccc1 | inconclusive: 25.1 µM [inhibitor, single point] | 
CC(C)OC(=O)CN1C(=O)S/C(=C/c2ccc(N3CCCCC3)o2)C1=O | inconclusive: 25.9 µM [inhibitor, partial curve, poor fit] | 
Clc1ccc(CSc2nncn2-c2ccc3c(c2)OCCO3)cc1 | inconclusive: 10 µM [inhibitor, partial curve, poor fit] | 
O=C(NCCCn1ccnc1)c1cc2c(ccc3ccccc32)o1 |  | inactive: 7.32%
Cc1onc(-c2ccccc2)c1C(=O)OCC(=O)NCc1ccc(F)cc1 |  | inactive: -5.19%
COc1ccc(/C=C/C(=O)c2ccc(NS(=O)(=O)c3ccc(C)cc3)cc2)cc1O | inconclusive: 35.5 µM [inhibitor, single point] | 
Cc1ccc(S(=O)(=O)N2CCOCC2)cc1C(=O)OCC(=O)N1CCc2ccccc2C1 | inconclusive: 1.26 µM [activator, single point] | 
Oc1cc(CNCc2ccccc2)c(O)cc1CNCc1ccccc1 |  | inactive: 0.385% [at 46.1 µM]
COc1cc(/C=C/C(=O)OCC(=O)NC(=O)NC2CCCC2)ccc1OCC#N | inconclusive: 0.447 µM [inhibitor, partial curve, poor fit] | 
O=c1c2ccccc2nnn1CSc1ccc2c(c1)OCCO2 | inconclusive: 29.1 µM [inhibitor, single point] | 
CCOC(=O)c1c(C)[nH]c(C)c1S(=O)(=O)NCC(=O)N1CCN(c2cc(Cl)ccc2C)CC1 | inconclusive: 35.5 µM [inhibitor, single point] | 
O=C(CCN1CCCC1Cc1ccccc1)c1ccc2c(c1)OCCO2 (stereo not given) | inconclusive: 7.94 µM [inhibitor, partial curve, poor fit] | 
CCC(=NCc1ccco1)c1c(O)n(C2CCCCC2)c(=O)[nH]c1=O | active: 3.66 µM | 
CN(C)c1ccc(/C=C(\C#N)c2ccccn2)cc1 | active: 1.41 µM | 
O=C(NCc1ccco1)/C(=C\c1ccc(F)cc1)NC(=O)c1ccco1 |  | inactive: 26.8%
Cc1cccc(/C(N)=N/OC(=O)c2ccoc2C)c1 | inconclusive: 15.8 µM [inhibitor, single point] | 
Cc1ccc(-n2c(SCCC(C)C)nc3sc4c(c3c2=O)CC(C)(C)OC4)cc1 |  | inactive: -22.3% [at 46.1 µM]
Cc1csc2nc(CSc3nc4ccccc4o3)cn12 | inconclusive: 1.26 µM [activator, single point] | 
Cc1ccc(S(=O)(=O)N2CCOCC2)cc1C(=O)Nc1ccc(-c2cn3ccsc3n2)cc1 | inconclusive: 14.1 µM [inhibitor, partial curve, poor fit] | 
Cc1ccc(-c2cn(-c3ccc(OC(F)F)cc3)c3[n+]2CCCCC3)cc1 | inconclusive: 17.8 µM [inhibitor, single point] | 
COc1ccc(NC(=O)N(Cc2cc3ccc(OC)cc3[nH]c2=O)CC2CCCO2)cc1 (stereo not given) | inconclusive: 35.5 µM [inhibitor, single point] | 
COc1ccccc1C1NC(=O)NC(C)=C1C(=O)OCc1ccccc1 (stereo not given) | inconclusive: 10 µM [inhibitor, partial curve] | 
O=C(NCCc1ccccc1)c1ccc2c(c1)OCCO2 | active: 0.355 µM | 
COc1ccc(NC(=O)CCCc2nnc3n(CCC(C)C)c(=O)c4sccc4n23)cc1Cl |  | inactive: 6.94% [at 46.1 µM]

Ordered by heavy-atom count (ascending): some entries from above.
SMILES | Potency | activity change, negative = inhibition
O=c1c2ccccc2nnn1CSc1ccc2c(c1)OCCO2 | inconclusive: 29.1 µM [inhibitor, single point] | 
CCC(=NCc1ccco1)c1c(O)n(C2CCCCC2)c(=O)[nH]c1=O | active: 3.66 µM | 
O=C(CCN1CCCC1Cc1ccccc1)c1ccc2c(c1)OCCO2 (stereo not given) | inconclusive: 7.94 µM [inhibitor, partial curve, poor fit] | 
Cc1onc(-c2ccccc2)c1C(=O)OCC(=O)NCc1ccc(F)cc1 |  | inactive: -5.19%

(cont.)

SMILES | Potency | activity change, negative = inhibition
O=S(=O)(Nc1cc(C(F)(F)F)ccc1N1CCOCC1)c1ccc2ccccc2c1 | inconclusive: 20.6 µM [inhibitor, single point] | 
Cc1ccc(-c2noc(CSc3nnc(C)n3-c3ccc(C)cc3)n2)cc1 | inconclusive: 20 µM [inhibitor, single point] | 
Cc1ccc(Oc2nn[nH]n2)cc1 |  | inactive: -18.9% [at 14.3 µM]
COc1ccccc1NC(=O)CC(=O)Nc1ccccc1OC |  | inactive: 9.7% [at 46.1 µM]
CC12CCC3C(CCC4(O)CC(O)CCC34C=NO)C1(O)CCC2C1=COC(=O)C1 (stereo not given) | active: 0.251 µM | 
Cc1ccc(S(=O)(=O)c2nc(S(=O)(=O)c3ccc(C)cc3)c(NC(C)C)s2)cc1 | inconclusive: 39.8 µM [inhibitor, partial curve, poor fit] | 
Cc1ccc(C)c(NC(=O)Cn2c(=O)n(Cc3ccc4c(c3)OCO4)c(=O)c3ccc(C(=O)NC4CCCCC4)cc32)c1 | inconclusive: 11.2 µM [activator, partial curve, poor fit] | 
COCc1c(C(=O)N/N=C\c2cccs2)nnn1-c1nonc1N |  | inactive: -4.34% [at 46.1 µM]
COc1ccc(S(=O)(=O)c2ccc(O)cc2)cc1 |  | inactive: 21.4%
C=CCn1c(SCCOc2ccccc2)nnc1C(C)NC(=O)c1ccccc1 (stereo not given) |  | inactive: -1.86%
Cc1ccc(S(=O)(=O)NCc2ccc(C(=O)N3CCN(Cc4ccccc4)CC3)cc2)cc1 | inconclusive: 14.6 µM [inhibitor, partial curve, poor fit] | 
CCOc1ccc2cc(C(=O)c3ccccc3)c(=O)oc2c1 | inconclusive: 0.366 µM [activator, full curve, poor fit] | 
CCOc1ccccc1C1C2CCCCC2(O)CCN1C(=O)c1cccs1 (stereo not given) |  | inactive: 1.72%
COCCNc1ncnc2onc(-c3ccc(F)cc3)c12 | inconclusive: 35.5 µM [activator, single point] | 
O=C(Cn1c(C(=O)OCCO)cc2ccccc21)c1ccccc1 | inconclusive: 6.31 µM [activator, single point] | 
COc1ccccc1CNC(=O)c1cc2cc(C)ccc2n1C | inconclusive: 3.55 µM [inhibitor, full curve, poor fit] | 
COc1cc(CNc2ccc3[nH]c(=O)[nH]c3c2)cc(Br)c1OCc1ccc(F)cc1 | inconclusive: 10 µM [inhibitor, partial curve, poor fit] | 
CC(C)Oc1ccc(C(=O)N2CC(=O)Nc3ccc(F)cc3C2c2ccc(F)cc2)cc1 (stereo not given) | inconclusive: 1.12 µM [inhibitor, partial curve, poor fit] | 
CN(CC(=O)Nc1ccccc1C(=O)N1CCCC1)S(=O)(=O)c1ccc(Br)cc1 | inconclusive: 18.3 µM [inhibitor, partial curve, poor fit] | 
CC1(C)CC(NS(=O)(=O)c2ccc3ccccc3c2)CC(C)(C)N1 | inconclusive: 25.1 µM [inhibitor, single point] | 
O=C1OC(c2ccc(Cl)cc2)=C/C1=C/c1cccnc1 | inconclusive: 8.91 µM [activator, partial curve, poor fit] | 
Cc1ccc(C(=O)N/N=C/c2ccc(-c3cccc(C(F)(F)F)c3)o2)cn1 | inconclusive: 1.78 µM [inhibitor, partial curve, poor fit] | 
CCN1C(=O)c2ccccc2Sc2ccc(C(=O)NCCC(C)C)cc21 | inconclusive: 1.12 µM [inhibitor, full curve, poor fit] | 
COc1ccc(NC(=O)Cn2cc(C(=O)C3CCCCC3)c3ccccc32)cc1 |  | inactive: 0.67% [at 46.1 µM]

SMILES | Potency | activity change, negative = inhibition
C=C(C)CNC(=S)NN=C1c2ccccc2-c2ccccc21 | inconclusive: 35.5 µM [inhibitor, single point] | 
CC1CCN(c2ccc(NC(=O)c3ccc(Br)o3)cc2)CC1 | active: 10 µM | 
Cc1ccc(C(C)NC(=O)C23CC4CC(CC(C4)C2)C3)cc1 (stereo not given) | inconclusive: 8.91 µM [inhibitor, partial curve, poor fit] | 
O=C(C=Cc1cccc(O)c1)c1ccccc1O | inconclusive: 35.5 µM [inhibitor, single point] | 
CCOc1ccc(CCNC(=O)c2sc3ncccc3c2-n2c(C)ccc2C)cc1 | inconclusive: 2 µM [inhibitor, partial curve, poor fit] | 
CN(C)c1nc2sc3c(c2c(=O)n1C)CC(C)(C)OC3 | inconclusive: 17.8 µM [activator, single point] | 
Cc1cc(C(=O)N/N=C/c2cn[nH]c2-c2ccccc2)cs1 |  | inactive: 3.27%
Cc1cc(C(=O)NNC(=O)/C=C/c2ccc(F)cc2)c(C)o1 |  | inactive: -3.9% [at 46.1 µM]
COC(=O)c1c(NC(=O)c2cc3nc(-c4ccc(Br)cc4)cc(C(F)(F)F)n3n2)sc2c1CCCC2 |  | inactive: -1.81% [at 46.1 µM]
Cc1ccc(-c2nn(-c3ccc(F)cc3)cc2C(=O)NCC2CCCO2)cc1 (stereo not given) |  | inactive: -18.7%
Cc1ccc(C)c(NC(=O)COc2coc(CN3CCc4ccccc4C3)cc2=O)c1 | inconclusive: 11.2 µM [inhibitor, partial curve, poor fit] | 
COc1ccc(-c2cc(C(F)(F)F)nc(SCCC(=O)Nc3cccc(O)c3)n2)cc1 |  | inactive: 13.8% [at 46.1 µM]
Cc1cccc(NC(=O)C2CCN(S(=O)(=O)c3ccc4c(c3)CCCC(=O)N4)CC2)c1 |  | inactive: 23% [at 46.1 µM]
CC(C)c1cc(C(N)=O)c(NC(=O)c2cccc(COc3ccc(Br)cc3)c2)s1 | inconclusive: 0.0164 µM [inhibitor, full curve, poor fit] | 
COc1ccc(-c2nn[nH]n2)cc1OC |  | inactive: 2.76%
CCOC(=O)CNC(=O)N1CCc2ccc(NC(=O)c3ccccc3OC)cc2C1 |  | inactive: 0.307% [at 46.1 µM]
Cc1oc(-c2cccc(C(F)(F)F)c2)nc1CN1CCOCC1 |  | inactive: 16% [at 46.1 µM]
CC12CCC(C(=O)Nc3cc(Cl)ccc3Cl)(C(Br)C1=O)C2(C)C (stereo not given) | inconclusive: 7.08 µM [inhibitor, partial curve, poor fit] | 
O=C(O)Cc1ccc(NC(=O)c2cccc(NC(=O)c3ccco3)c2)cc1 |  | inactive: 7.08% [at 46.1 µM]
CCN=c1scc(-c2ccccc2)n1/N=C/c1ccccn1 | active: 1.46 µM | 
COc1ccc(S(=O)(=O)Cc2ccc(C(=O)NCc3ccc(C)cc3)o2)cc1 | inconclusive: 11.2 µM [inhibitor, single point] | 
O=C(CSc1nnc(-c2ccc(Br)cc2)o1)N1CCN(C(=O)c2ccco2)CC1 | inconclusive: 20.6 µM [inhibitor, single point] | 
